Measured values from PubChem BioAssay AID493027 (The Scripps Research Institute Molecular Screening Center, 2011).
The whole screen tested about 2,000 compounds, of which about 45 (2%) were called active.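 Rule for the calls: active = inhibition above the screen-wide mean inhibition plus 3 SD (cut at about 44% in these data); inactive = the rest.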 This is one part of the list. Where a SMILES comes first, the peptide text is derived from it.

Protein sequences, listed by entry. Tags and fused reporters are not part of them. Lines headed by an entry give the natural chain unless they say otherwise; changes in a name come on top.
UniProt O60240: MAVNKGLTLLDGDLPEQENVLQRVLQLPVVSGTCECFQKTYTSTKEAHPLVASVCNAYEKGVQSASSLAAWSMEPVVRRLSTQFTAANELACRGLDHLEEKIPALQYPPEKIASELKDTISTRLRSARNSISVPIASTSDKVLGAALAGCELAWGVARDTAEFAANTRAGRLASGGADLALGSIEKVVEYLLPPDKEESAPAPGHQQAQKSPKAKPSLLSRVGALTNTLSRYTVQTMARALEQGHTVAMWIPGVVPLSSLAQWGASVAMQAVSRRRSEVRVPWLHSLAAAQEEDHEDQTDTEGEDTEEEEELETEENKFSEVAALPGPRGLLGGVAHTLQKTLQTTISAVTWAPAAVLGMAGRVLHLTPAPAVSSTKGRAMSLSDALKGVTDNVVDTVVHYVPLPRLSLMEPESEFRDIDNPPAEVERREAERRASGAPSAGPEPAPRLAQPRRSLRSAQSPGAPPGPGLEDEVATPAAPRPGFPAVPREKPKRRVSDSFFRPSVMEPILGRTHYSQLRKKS
UniProt Q8WTS1: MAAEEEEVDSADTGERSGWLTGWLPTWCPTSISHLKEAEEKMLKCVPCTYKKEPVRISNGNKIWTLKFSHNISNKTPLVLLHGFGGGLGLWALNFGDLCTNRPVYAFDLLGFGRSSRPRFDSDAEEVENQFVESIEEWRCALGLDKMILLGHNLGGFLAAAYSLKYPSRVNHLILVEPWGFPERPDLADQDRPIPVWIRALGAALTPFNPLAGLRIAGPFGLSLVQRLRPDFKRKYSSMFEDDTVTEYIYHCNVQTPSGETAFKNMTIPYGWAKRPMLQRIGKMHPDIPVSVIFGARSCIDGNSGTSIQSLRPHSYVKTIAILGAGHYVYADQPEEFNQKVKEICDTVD

Each compound was assayed against Perilipin-1 (Homo sapiens) + 1-acylglycerol-3-phosphate O-acyltransferase ABHD5 (Homo sapiens) (UniProt O60240+Q8WTS1) (assay: blockers of ABHD5 binding to perilipin-1 – cell lysate, split luciferase complementation, luminescence, NIH validation set, pilot screen (AID 493027;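 note: 0% = DMSO wells with the 100% control not disclosed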)). Conditions: split G. princeps luciferase complementation, 4 h; at 7.9 µM, stronger effect = higher value.

inhibition, inactive:
O=c1c2[nH]c3ccccc3c2ncn1CCC1=CCCCC1 -7.25%
Nc1nc2c(ncn2COCCO)c(=O)[nH]1 -2.87%
Cc1ccccc1NC(=O)NCCc1c[nH]c2ccccc12 -4.18%
Cn1cnc2c1c(=O)n(CC(O)CO)c(=O)n2C (stereo not given) -7.24%
CC(=O)OCC(=O)[C@@]1(O)[C@H](C)C[C@H]2[C@@H]3CCC4=CC(=O)C=C[C@]4(C)[C@@]3(F)[C@@H](O)C[C@@]21C -9.43%
COc1ccc(C(=O)Nc2cccnc2)cc1C(=O)Nc1cccnc1 -3.28%
CCC12CN3CC(CC)(CN(C1)C31C(=O)N(C)c3ccc(C)cc31)C2=O (stereo not given) 0.44%
CCOCCn1c(C(C)O)nc2ccccc21 (stereo not given) -7.89%
COc1cc2c(cc1OC)C(c1ccccc1)=NCC2 1.37%
Cc1occc(=O)c1O 0.1%
O=C(O)c1ccc(OCCn2ccnc2)cc1 -0.39%
C#C[C@]1(O)CC[C@H]2[C@@H]3CCc4cc(O)ccc4[C@H]3CC[C@@]21C 14.4%
Cc1oc2cc(O)cc(O)c2c(=O)c1-c1ccc2c(c1)OCCCO2 13.7%
CC(C(=O)O)c1cccc(C(=O)c2ccccc2)c1 (stereo not given) -9.32%
COc1cc(SC)ccc1C(=O)NC(C)C 4.38%
COc1ccc(C(=O)NCCC2=CCCCC2)cc1[N+](=O)[O-] -0.76%
CCOC(=O)c1ncn2c1CN(C)C(=O)c1cc(F)ccc1-2 -14.2%
CCOC(=O)Cc1c(C)nc(N)[nH]c1=O -11.9%
CC(=O)N1CCN2C(=O)C1CCCC(=O)c1cc(C(C)C)ccc12 (stereo not given) 0.46%
CCCC1O[C@@H]2C[C@H]3[C@@H]4CCC5=CC(=O)C=C[C@]5(C)[C@H]4[C@@H](O)C[C@]3(C)[C@]2(C(=O)CO)O1 (stereo not given in full) 0.23%
CC1(C)Cc2nc3oc4c(NCc5ccccc5)ncnc4c3cc2CO1 6.64%
Cc1ccc([N+](=O)[O-])cc1NC1OC(CO)C(O)C1O (stereo not given) 2.85%
Cc1ccccc1NC(=O)c1c(C)cc(=O)oc1C 1.38%
O=C(CNC(=O)OCc1ccccc1)Oc1cc2oc(=O)cc(-c3ccccc3)c2cc1Cl 4.96%
Cc1cc(NS(=O)(=O)c2ccc(N)cc2)no1 -8.07%
NS(=O)(=O)c1cc2c(cc1Cl)NC(CSCc1ccccc1)=NS2(=O)=O -9.45%
CCNC(=O)c1sc2cc(C)ccc2c1Cl -4.33%
COc1cc(NC(=O)N[C@@H](Cc2ccccc2)C(=O)O)cc(OC)c1 -9.41%
Cn1c2ccc(CC(=O)O)cc2c2cc(CC(=O)O)ccc21 3.75%
CC1(C)S[C@@H]2[C@H](NC(=O)C(C(=O)O)c3ccccc3)C(=O)N2[C@H]1C(=O)O (stereo not given in full) -6.15%
OCC1(CCOc2ccccc2)CCN(CCCn2cccn2)CC1 -3.46%
CC(=O)[C@@]1(O)CC[C@H]2[C@@H]3C[C@H](C)C4=CC(=O)CC[C@]4(C)[C@H]3CC[C@@]21C -8%
Cc1ccc2nc(NC3=NC(CC(=O)O)C(=O)N3)nc(C)c2c1 (stereo not given) -7.42%
COc1ccc2[nH]c3c(c2c1)CCn1c-3nc2ccccc2c1=O -4.4%
COc1cc2c3c(c1)C1(C(=O)N3C(C)(C)C=C2C)C(C#N)=C(N)Oc2cc(C)oc(=O)c21 (stereo not given) -0.82%
COc1cc2c(cc1OC)C(C)=NC1(CCCCC1)C2 -6.1%
O=C1OC(Nc2ccc3c(c2)OCO3)c2ccccc21 (stereo not given) 6.91%
CCNC(=O)c1c(N)sc2c1CCCCC2 6.41%
COc1ccc(C(C)N2CC34C=CC(O3)C(C(=O)OCC(C)C)C4C2=O)cc1 (stereo not given) -3.6%
Nc1c2c(nc3ccccc13)CCCC2 5.39%
Nc1ccc2cn[nH]c2c1 -18.1%
COc1cc2cc(C(=O)O)n(C)c2c(OC)c1OC 3.69%
CCOC(=O)C(NC(C)=O)C(O)c1ccc([N+](=O)[O-])cc1 (stereo not given) -8.13%
CCSc1nc(O)c(C2OC(=O)c3c2ccc(OC)c3OC)c(=O)n1CC (stereo not given) -1.67%
COCCOC(=O)C1=C(N)OC2=C(C(=O)CCC2)C1c1cccnc1 (stereo not given) -5.76%
c1ccc(-c2ccccn2)nc1 2.78%
C[C@]12C[C@H](O)[C@H]3[C@@H](CCC4=CC(=O)CC[C@@]43C)[C@@H]1CC[C@@H]2C(=O)CO -0.42%
O=C(NC(Nc1ccccn1)C(Cl)(Cl)Cl)c1ccccc1 (stereo not given) 9.27%
O=C(NCCNc1ccc(Cl)cc1[N+](=O)[O-])c1cccnc1 3.6%
COc1ccc(NC(=S)NCCc2c[nH]c3ccccc23)cc1 0.31%
CC(C)Oc1ccc(C2CC(=O)N(c3ccc(C(=O)O)cc3)C2=O)cc1 (stereo not given) -6.52%
Oc1ccc(COCc2ccccc2)c2cccnc12 -4.04%
O=C(O)c1cc2cc(Cl)cc(Cl)c2oc1=O 1.22%
CC(=O)c1c(C)c(C)c2n1CCn1c(C)ccc1-2 5.75%
O=C(OCC(O)C(O)COC(=O)c1ccccc1)c1ccccc1 (stereo not given) -7.77%
O=C(CCc1ccccc1)Nc1ccccc1C(F)(F)F -14%
COc1cc(CNc2ccc(C)c(C)c2)cc(OC)c1OC 0.28%
Cc1ccc(C2CC(c3cccs3)=NN2C(=O)c2ccco2)o1 (stereo not given) 1.57%
O=C(CNC(=O)OCc1ccccc1)NC1CCCCCC1 -8.58%
CC(=O)N[C@@H](CS)C(=O)O -18.8%
Cc1nc(C2CC(=O)OC23CCCCC3)cs1 (stereo not given) -10.4%
COc1ccc(C(=O)O)cc1F -0.5%
COc1cccc(OCc2cc(C3Nc4ccccc4C(=O)N3Cc3ccco3)ccc2OC)c1 (stereo not given) 42.9%
O=C(CCCCC(=O)NC1CCCC1)NC1CCCC1 -1.07%
CC[C@H](C)C(=O)O[C@H]1C[C@@H](C)C=C2C=C[C@H](C)[C@H](CC[C@@H]3C[C@@H](O)CC(=O)O3)[C@H]21 0.42%
CC1(C)CC(=O)C(C2(O)C(=O)Nc3ccccc32)CO1 (stereo not given) -16.5%
Cc1cc(OC(C(=O)O)c2ccccc2)c2c(C)c(Cc3ccccc3)c(=O)oc2c1 (stereo not given) 31.9%
C[N+]12CCCCC1C(COC(=O)c1ccc3c(c1)OCO3)CCC2 (stereo not given) -2.51%
CCCCNc1cc(C(=O)O)cc(S(N)(=O)=O)c1Oc1ccccc1 -6.42%
CC1(C)CC(CC(=O)O)(c2ccc(Cl)cc2)CCO1 (stereo not given) 3.84%
COc1c2c(nc3occc13)C(CC=C(C)C)(OC)C(O)CC2 (stereo not given) -3.7%
Cc1cc(O)c(C(C)C)cc1C1(c2cc(C(C)C)c(O)cc2C)OC(=O)c2ccccc21 36%
COc1ccc(C2CC(c3ccc([N+](=O)[O-])cc3)=NN2C(=O)c2ccccc2)cc1OC (stereo not given) -4.89%
CCCCCC(O)c1cccc(OCc2ccc3ccccc3n2)c1 (stereo not given) 14.8%
O=c1ccn([C@@H]2O[C@H](CO)[C@@H](O)[C@H]2O)c(=O)[nH]1 -4.21%
CC(=O)N1CC2(C)CN(C(C)=O)CC(C)(C1)C2 -2.82%
CC1(C#CC[N+]2(C)CCCCC2)CCC2C(O1)c1ccccc1OC2(C)C (stereo not given) -0.14%
Cc1ccc(C(=O)COC(=O)c2cccc(N3C(=O)c4c(C)nc5ccccc5c4C3=O)c2)cc1C 1.41%
CC(=O)NC(CC(C)C)C(=O)NC(Cc1ccccc1)C(N)=O (stereo not drawn) (Ac-Leu-Phe-NH2; configuration not given here) -3.91%
Cc1ccnc(NS(=O)(=O)c2ccc(N)cc2)n1 -6.8%
Cc1c(OCC(=O)NC(Cc2c[nH]c3ccc(O)cc23)C(=O)O)ccc2c3c(c(=O)oc12)CCC3 (stereo not given) -9.89%
NC(=O)OCC(COC(N)=O)c1ccccc1 -8.74%
C[C@H]([C@@H](N)C(=O)N[C@@H](C(=O)O)[C@@H]1O[C@H](n2ccc(=O)[nH]c2=O)[C@@H](O)[C@H]1O)[C@@H](O)c1ccc(O)cn1 8.07%
Cc1cccc(OCC(=O)Nc2ccc(C(=O)NCC(C)C)cc2)c1 -6.6%
COc1cc(CC(=O)NCCc2ccc(S(N)(=O)=O)cc2)cc(OC)c1OC 1.29%
COc1ccc(C(=O)CCN2CCc3cc(OC)c(OC)cc3C2)cc1 23.8%
Cc1cc(OC(=O)CNC(=O)OC(C)(C)C)c2c(C)cc(=O)oc2c1 6.38%
O=C(NCCN1CCOCC1)c1ccc(Cl)cc1 -3.93%
Cc1cccc2c(=O)n3c(nc12)CCCCC3 -4.08%
O=C1CCCN1CCCn1cnc2c([nH]c3ccc(F)cc32)c1=O -3.75%
CC(=O)CCCCn1c(=O)c2c(ncn2C)n(C)c1=O 3.13%
O=C(CCCN1C(=O)/C(=C\c2cccs2)SC1=S)Nc1ccccn1 5.07%
O=C(O)CCn1cnc2ccccc2c1=O 3.53%
CC(=O)N(CCC1(c2ccc(C)cc2)CCOC(C(C)C)C1)Cc1ccco1 (stereo not given) 4.94%
O=C(Oc1ccccc1)Oc1ccc2c(c1)oc(=O)c1ccccc12 -0.35%

Already shown: an excerpt of the list.
inhibition, inactive:
Cc1cc(O)c(C(C)C)cc1C1(c2cc(C(C)C)c(O)cc2C)OC(=O)c2ccccc21 36%
COc1ccc(C2CC(c3ccc([N+](=O)[O-])cc3)=NN2C(=O)c2ccccc2)cc1OC (stereo not given) -4.89%
CCCCCC(O)c1cccc(OCc2ccc3ccccc3n2)c1 (stereo not given) 14.8%

2 entries drawn at random from the list so far:
inhibition, inactive:
O=C(OCC(O)C(O)COC(=O)c1ccccc1)c1ccccc1 (stereo not given) -7.77%
CC1(C)S[C@@H]2[C@H](NC(=O)C(C(=O)O)c3ccccc3)C(=O)N2[C@H]1C(=O)O (stereo not given in full) -6.15%
